{
  "source": "paper doi:10.1101/2024.12.22.627358",
  "key": {"[1]": {"target": "T1, HSBP-nYFP (HEAT SHOCK FACTOR BINDING PROTEIN fused to the N-terminal part of YFP) (Arabidopsis thaliana) (UniProt Q8GW48)", "T1 sequence": "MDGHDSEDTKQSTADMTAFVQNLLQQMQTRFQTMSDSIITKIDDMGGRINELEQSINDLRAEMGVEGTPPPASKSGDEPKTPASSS", "test": "split reporter"}, "[2]": {"target": "T2, HSBP-GFP (Arabidopsis thaliana) (UniProt Q8GW48)", "T2 sequence": "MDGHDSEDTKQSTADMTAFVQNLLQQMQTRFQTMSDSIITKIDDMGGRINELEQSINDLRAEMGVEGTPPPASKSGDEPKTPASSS", "test": "co-IP"}},
  "note": "Results are given in words; binding and its absence hold for the method and conditions named. Binding seen in cells or lysates may run through a third protein. Some binding calls cover weakened binding; strength is not graded here. Sequences can lack the tags named with a protein.",
  "data": [
    {"binder": "EID1-cYFP (… IM DUNKELROTEN LICHT 1 fused to the C-terminal part of YFP) (protein, UniProt Q8LEA8 1-336) MAESVFSCIPEDVVFNIFFKLQDDPRNWARLACVCTKFSSIVRNVCCKTQCYSAIPTVISDLLPLPPSAAASASSSTAADSSLTPPGGWASLYKLAVCCPGLFHAGILLENSDFGLERELGPDQNLDPKPTTTDLALNDEEVSKPVGSGLETTSFWSLYDDLYTDTIPAPPPEDSIDDQEEEIETSEIRPGRDLPVRKRRKICRSLGSHLASGGWNLSREQGNKLLASRFRGDCLYICNWPGCIHVEEKRNYMLFRGVFKDFKRSRVWRTINDGNRSKTSGLKCAFCLCDETWDLHSSFCLRRVFGFHDDGEPVVRAYVCENGHVSGAWTALPLYT", "values": [
      {"measurement": "binding", "setting": "[1]", "result": "binds"}
    ]},
    {"binder": "FLAG-EID1 (protein, UniProt Q8LEA8 1-336) MAESVFSCIPEDVVFNIFFKLQDDPRNWARLACVCTKFSSIVRNVCCKTQCYSAIPTVISDLLPLPPSAAASASSSTAADSSLTPPGGWASLYKLAVCCPGLFHAGILLENSDFGLERELGPDQNLDPKPTTTDLALNDEEVSKPVGSGLETTSFWSLYDDLYTDTIPAPPPEDSIDDQEEEIETSEIRPGRDLPVRKRRKICRSLGSHLASGGWNLSREQGNKLLASRFRGDCLYICNWPGCIHVEEKRNYMLFRGVFKDFKRSRVWRTINDGNRSKTSGLKCAFCLCDETWDLHSSFCLRRVFGFHDDGEPVVRAYVCENGHVSGAWTALPLYT", "values": [
      {"measurement": "binding", "setting": "[2]", "result": "binds"}
    ]}
  ]
}
